Here are results for seven molecules from article PMC10613268, “Shade-induced RTFL/DVL peptides negatively regulate the shade response by directly interacting with BSKs in Arabidopsis” (Nature Communications, 2023).

Sequences of proteins named here, by UniProt entry; tags and fusion partners are left off.
UniProt Q8W4L3: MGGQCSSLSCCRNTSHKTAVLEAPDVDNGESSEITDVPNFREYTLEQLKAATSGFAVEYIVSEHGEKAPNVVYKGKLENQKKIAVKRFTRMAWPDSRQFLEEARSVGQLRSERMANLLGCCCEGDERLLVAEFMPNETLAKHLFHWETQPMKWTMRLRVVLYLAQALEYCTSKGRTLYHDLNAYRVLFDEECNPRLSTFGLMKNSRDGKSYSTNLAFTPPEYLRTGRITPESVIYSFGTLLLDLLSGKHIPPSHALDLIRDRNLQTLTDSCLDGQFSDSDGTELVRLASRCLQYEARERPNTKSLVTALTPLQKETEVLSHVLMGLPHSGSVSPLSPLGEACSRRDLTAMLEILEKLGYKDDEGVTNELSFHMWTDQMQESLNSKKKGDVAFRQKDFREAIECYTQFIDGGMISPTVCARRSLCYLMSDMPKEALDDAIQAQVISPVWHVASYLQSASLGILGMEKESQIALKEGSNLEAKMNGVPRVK
UniProt Q9M324: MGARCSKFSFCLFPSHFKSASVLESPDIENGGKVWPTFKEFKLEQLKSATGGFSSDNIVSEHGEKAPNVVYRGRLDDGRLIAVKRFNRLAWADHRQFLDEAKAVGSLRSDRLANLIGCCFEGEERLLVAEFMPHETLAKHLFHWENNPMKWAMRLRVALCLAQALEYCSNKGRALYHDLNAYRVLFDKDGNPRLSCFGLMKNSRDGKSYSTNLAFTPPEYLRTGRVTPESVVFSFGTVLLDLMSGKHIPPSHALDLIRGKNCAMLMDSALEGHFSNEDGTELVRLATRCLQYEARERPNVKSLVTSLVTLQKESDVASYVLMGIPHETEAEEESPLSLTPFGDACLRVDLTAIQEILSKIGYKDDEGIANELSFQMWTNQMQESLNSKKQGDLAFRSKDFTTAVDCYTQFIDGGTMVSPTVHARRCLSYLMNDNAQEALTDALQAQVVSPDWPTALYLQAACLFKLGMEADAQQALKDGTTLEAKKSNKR

Positions count from the first letter of the chain named. Names and notes keep the numbering of the source. No constants are given. Whether binding was seen depends on the method and setting. For some assays here: Binding seen in cells or lysates may run through a third protein. Some binding calls cover weakened binding; strength is not graded here. Sequences can lack the tags named with a protein.

One test deals with T1, GST-RTFL18 (Arabidopsis) (UniProt Q6X5V0).
T1 sequence: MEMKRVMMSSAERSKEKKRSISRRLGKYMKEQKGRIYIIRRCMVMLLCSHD
The test is described as follows: pull-down; semi-in vivo: purified GST or GST-RTFL18 mixed with extract of N. benthamiana leaves expressing BSK3/BSK6-Flag, glutathione-agarose beads, 4 °C 2 h; blot anti-Flag, anti-GST; only the target purified.

A further test concerns the target BSK3-cYFP (Arabidopsis) (UniProt Q8W4L3). The test can be described thus: split reporter; BiFC with split YFP in tobacco leaves; nYFP-RTFL18 with BSK-cYFP; confocal microscopy.
In another test the target is BSK6-cYFP (Arabidopsis) (UniProt Q9M324). The description is as above.
Test [1] addresses BSK3-GFP (transient in N. benthamiana) (Arabidopsis) (UniProt Q8W4L3). The test can be described thus: co-IP; N. benthamiana leaves transiently co-expressing Flag-RTFL18 with GFP, BSK3-GFP or BSK6-GFP; IP with anti-GFP affinity beads, 2 h 4 °C; blot anti-Flag, anti-GFP.
Test [2] deals with BSK6-GFP (transient in N. benthamiana) (Arabidopsis) (UniProt Q9M324). Described as above.
The target of the next test is T2, GST-BSK3 WT (Arabidopsis, UniProt Q8W4L3 1-489).
T2 construct: BSK3, Arabidopsis; full-length coding region cloned into pGEX4-T-1; source: E. coli BL21 (DB3), purified; not shown: GST, N-terminal, kept
The test can be described thus: pull-down; in vitro (Fig. 4l): purified GST-BSK3 WT on glutathione beads, then His-RTFL18 (WT, M1, M2), 4 °C 2 h, 1 × PBS with 1 mM DTT; blot anti-His, anti-GST; both purified.

For test [3], the target named is BSK3-GFP (Arabidopsis Flag-RTFL18*BSK3-GFP line) (Arabidopsis) (UniProt Q8W4L3). The test can be described thus: co-IP; Arabidopsis Flag-RTFL18*BSK3-GFP and Flag-RTFL18*BSK6-GFP plants, white light or low R:FR for 1 h; IP with anti-GFP affinity beads, 2 h 4 °C; blot anti-Flag, anti-GFP.
The target in test [4] is BSK6-GFP (Arabidopsis Flag-RTFL18*BSK6-GFP line) (Arabidopsis) (UniProt Q9M324). The test is described as above.
For a further test, the target named is BSK3-nLuc (Arabidopsis) (UniProt Q8W4L3). The test can be described thus: split reporter; luciferase complementation imaging (LCI) in N. benthamiana leaves; BSK-nLuc with cLuc-RTFL; CCD imaging.
The next test addresses BSK6-nLuc (Arabidopsis) (UniProt Q9M324). Described as above.

Turning to BSK3-Flag (from UniProt Q8W4L3 1-489), in the test with GST-RTFL18 (Arabidopsis), the binding result was “binds”.
BSK6-Flag (from UniProt Q9M324 1-490): in the test with GST-RTFL18 (Arabidopsis), the binding result was “binds”.

B1: nYFP-RTFL18 (peptide, UniProt Q6X5V0 1-51)
chain: T1 sequence
B1: the binding entry with BSK3-cYFP (Arabidopsis) and with BSK6-cYFP (Arabidopsis) was “binds” throughout.

B2: Flag-RTFL18 (transient in N. benthamiana) (peptide, UniProt Q6X5V0 1-51)
chain: T1 sequence
Turning to B2, the binding entry in [1] and in [2] was “binds” each time.

B3: His-RTFL18 M1 (I39A, M43A, L47A) (peptide, UniProt Q6X5V0 1-51)
chain: T1 sequence with I39A, M43A, L47A
In the case of B3, the binding result with GST-BSK3 WT was “binds weakly”.

B4: Flag-RTFL18 (Arabidopsis 35S::Flag-RTFL18 lines) (peptide, UniProt Q6X5V0 1-51)
chain: T1 sequence
Take B4: the binding result in [3] and in [4] was “binds” in each case.

B5: cLuc-RTFL18 (peptide, UniProt Q6X5V0 1-51)
chain: T1 sequence
For the molecule B5, the binding result with BSK3-nLuc (Arabidopsis) and in the test with BSK6-nLuc (Arabidopsis) was “binds” throughout.
